Results taken from patent US20210238260A1.
These are yes or no findings as the source states them, for the method shown. Some entries that bind do so weakly or less than the wild type.

Sequences of proteins named here, by UniProt entry; tags and fusion partners are left off. A change or cut given only in a name is not applied to a line headed by its entry. A line that says so, or that is headed by a name, gives the form on record, which may keep a tag or linker.
Factor VIIIa (FVIIIa) (P00451, form named): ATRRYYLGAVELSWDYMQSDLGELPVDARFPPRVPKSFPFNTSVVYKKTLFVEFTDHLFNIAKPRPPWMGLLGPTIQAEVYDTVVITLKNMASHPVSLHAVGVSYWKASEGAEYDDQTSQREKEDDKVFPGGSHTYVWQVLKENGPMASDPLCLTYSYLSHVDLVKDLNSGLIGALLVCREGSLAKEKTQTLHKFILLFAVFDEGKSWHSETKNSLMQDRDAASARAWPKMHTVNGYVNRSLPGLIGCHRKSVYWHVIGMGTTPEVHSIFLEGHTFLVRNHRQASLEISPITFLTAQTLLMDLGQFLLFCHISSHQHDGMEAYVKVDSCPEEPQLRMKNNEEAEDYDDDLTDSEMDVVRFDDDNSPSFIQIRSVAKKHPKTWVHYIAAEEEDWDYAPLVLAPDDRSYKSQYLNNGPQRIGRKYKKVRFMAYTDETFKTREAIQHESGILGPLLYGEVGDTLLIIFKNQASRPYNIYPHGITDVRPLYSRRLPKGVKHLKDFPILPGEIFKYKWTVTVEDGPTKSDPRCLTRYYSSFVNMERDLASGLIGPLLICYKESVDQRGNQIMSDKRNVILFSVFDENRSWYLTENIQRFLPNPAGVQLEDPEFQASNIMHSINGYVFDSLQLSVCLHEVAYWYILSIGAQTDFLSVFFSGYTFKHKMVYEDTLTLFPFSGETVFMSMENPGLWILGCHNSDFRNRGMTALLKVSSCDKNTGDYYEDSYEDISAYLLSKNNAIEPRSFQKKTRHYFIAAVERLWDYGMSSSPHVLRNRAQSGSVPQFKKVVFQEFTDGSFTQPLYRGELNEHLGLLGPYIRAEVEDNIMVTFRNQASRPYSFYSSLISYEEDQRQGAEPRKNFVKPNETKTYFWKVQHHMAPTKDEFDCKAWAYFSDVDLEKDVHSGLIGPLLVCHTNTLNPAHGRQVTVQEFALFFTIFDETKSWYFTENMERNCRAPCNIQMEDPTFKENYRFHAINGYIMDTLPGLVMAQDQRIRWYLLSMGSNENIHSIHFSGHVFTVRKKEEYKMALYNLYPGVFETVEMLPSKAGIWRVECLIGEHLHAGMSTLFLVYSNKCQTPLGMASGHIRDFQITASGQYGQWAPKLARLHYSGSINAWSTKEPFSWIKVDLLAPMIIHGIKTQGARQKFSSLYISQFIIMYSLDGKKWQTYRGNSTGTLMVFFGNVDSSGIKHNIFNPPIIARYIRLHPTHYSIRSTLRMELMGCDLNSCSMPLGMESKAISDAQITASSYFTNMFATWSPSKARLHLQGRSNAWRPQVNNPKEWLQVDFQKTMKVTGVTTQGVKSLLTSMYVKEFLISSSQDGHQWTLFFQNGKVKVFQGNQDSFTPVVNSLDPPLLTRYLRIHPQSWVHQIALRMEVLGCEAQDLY
UniProt P01008: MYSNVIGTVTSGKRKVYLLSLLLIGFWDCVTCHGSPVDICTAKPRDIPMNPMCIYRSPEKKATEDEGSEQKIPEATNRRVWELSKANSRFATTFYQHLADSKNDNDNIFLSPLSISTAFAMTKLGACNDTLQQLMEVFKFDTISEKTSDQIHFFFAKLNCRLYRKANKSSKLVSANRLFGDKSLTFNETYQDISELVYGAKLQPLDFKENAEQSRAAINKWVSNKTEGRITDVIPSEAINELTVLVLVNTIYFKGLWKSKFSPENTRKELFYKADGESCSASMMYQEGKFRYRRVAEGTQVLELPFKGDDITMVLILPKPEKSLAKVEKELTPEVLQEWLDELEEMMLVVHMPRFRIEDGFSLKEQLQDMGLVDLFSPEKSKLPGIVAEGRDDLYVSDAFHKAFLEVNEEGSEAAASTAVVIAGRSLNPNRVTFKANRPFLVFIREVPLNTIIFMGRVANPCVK
UniProt P00740: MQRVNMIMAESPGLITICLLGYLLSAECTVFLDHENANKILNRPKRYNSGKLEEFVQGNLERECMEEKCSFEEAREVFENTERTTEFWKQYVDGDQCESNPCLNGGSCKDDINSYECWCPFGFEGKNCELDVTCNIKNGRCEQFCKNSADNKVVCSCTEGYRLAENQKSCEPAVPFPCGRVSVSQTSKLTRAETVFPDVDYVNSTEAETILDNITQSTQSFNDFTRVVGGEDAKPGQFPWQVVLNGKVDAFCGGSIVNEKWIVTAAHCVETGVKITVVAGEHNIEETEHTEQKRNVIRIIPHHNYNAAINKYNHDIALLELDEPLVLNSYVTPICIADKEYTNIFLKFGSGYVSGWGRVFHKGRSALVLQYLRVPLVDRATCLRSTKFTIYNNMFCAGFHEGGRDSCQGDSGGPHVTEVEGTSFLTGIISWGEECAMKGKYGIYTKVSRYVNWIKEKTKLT

Experiments:
[1] = molecular target: Factor VIIIa (FVIIIa) (UniProt P00451); test: assay not described at this place (functional cofactor binding, Example 8)
[2] = molecular target: Antithrombin III (plasma purified human AT-III, Molecular Innovations) (human) (UniProt P01008); test: AT-III/UFH inhibition of FIXa cleavage of Mesyl-D-CHG-Gly-Arg-AMC
[3] = molecular target: Factor VIIIa (FVIIIa) (UniProt P00451); test: functional cofactor binding (KD-app): FXa generation by the Xase complex at varied FVIIIa, Spectrafluor FXa
[4] = molecular target: FIXa-R318E/R403E (human) (UniProt P00740); test: inhibition of FIXa activity on Mesyl-D-CHG-Gly-Arg-AMC by AT-III/LMWH

In the case of “FIXa-E410N (from UniProt P00740 47-191; P00740 227-461) (enzyme)”, the binding [1] is reported as “binds”.
With “FIXa-R318E/R403E (from UniProt P00740 47-191; P00740 227-461) (enzyme)” the binding [2] was “no binding (tested: 35 nM AT-III)”.
With “FIXa-R318Y/R338E (from UniProt P00740 47-191; P00740 227-461) (enzyme)” the binding [3] was “binds”.
“FIXa-R318Y/R338E/R403E/E410N (from UniProt P00740 47-191; P00740 227-461) (enzyme)” was tested, and the binding [3] was “binds”.
With “plasma purified human AT-III (Molecular Innovations), in complex with low molecular weight heparin (from UniProt P01008 33-464)” the binding [4] was “no binding (tested: 999 nM (assigned lower limit of K0.5))”.
